PubChem BioAssay AID1259425 – University of Nebraska Medical Center | 2018
This is an unselected part of about 14,000 reagents. Not given: the time to read-out.

Purpose: 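Seek colon cancer weak points whose silencing resembles KSR1 loss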 (primary screen)
System: HCT116 human colon cancer cells
Knock-down reagent: siRNA pool against human genes, 50 nM siRNA
Measurement: 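mRNA of six signature genes measured together by branched-DNA assay after 50 nM siRNA pool, blank removed, divided by geometric mean of two housekeeping genes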
Scale: BNIP3L mRNA: higher = more BNIP3L transcript after knockdown; NDRG1 mRNA: higher = more NDRG1 transcript after knockdown; BNIP3 mRNA: higher = more BNIP3 transcript after knockdown; ALDOC mRNA: higher = more ALDOC transcript after knockdown; ACSL5 mRNA: higher = more ACSL5 transcript after knockdown

Gene	BNIP3L mRNA, set 1	NDRG1 mRNA, set 1	BNIP3 mRNA, set 1	ALDOC mRNA, set 1	ACSL5 mRNA, set 1
TMEM9B (GeneID 56674)	0.0957	0.67	0.399	0.0558	0.554
GRIA3 (GeneID 2892)	0.0814	0.118	0.327	0.0277	0.0865
BRI3 (GeneID 25798)	0.188	0.347	0.398	0.0337	0.216
NAGLU (GeneID 4669)	0.0831	0.139	0.222	0.0117	0.0683
PHLDA1 (GeneID 22822)	0.0926	0.323	0.235	0.0217	0.219
TMEM63A (GeneID 9725)	0.0821	0.241	0.333	0.0185	0.1
DENND11 (GeneID 57189)	0.0656	0.225	0.318	0.0149	0.216
PRR34 (GeneID 55267)	0.0267	0.293	0.197	0.00391	0.21
PLEKHG2 (GeneID 64857)	0.122	0.133	0.363	0.0209	0.142
ZP2 (GeneID 7783)	0.0539	0.132	0.318	0.0189	0.226
DNMT3L (GeneID 29947)	0.0922	0.139	0.3	0.0205	0.0548
SLC45A2 (GeneID 51151)	0.104	0.186	0.357	0.0292	0.133
CSNK1A1 (GeneID 1452)	0.0241	0.0654	0.328	0.0131	0.248
PHYH (GeneID 5264)	0.203	0.141	0.425	0.0368	0.333
SORL1 (GeneID 6653)	0.0878	0.626	0.355	0.0241	0.322
PRPS2 (GeneID 5634)	0.0962	0.188	0.291	0.0109	0.215
CR2 (GeneID 1380)	0.0631	0.0885	0.224	0.0225	0.127
PLN (GeneID 5350)	0.113	0.163	0.297	0.0255	0.156
DYNC1H1 (GeneID 1778)	0.0712	0.203	0.363	0.0406	0.123
PCNX2 (GeneID 80003)	0.0904	0.396	0.425	0.0436	0.368
